PubChem BioAssay AID1159578 – Peter MacCallum Cancer Centre – 2015
In all, the deposit lists about 18,000 reagents; shown is an unselected part. Of all reagents, about 1,030 (5.7%) are marked active. 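Inactive calls also include pools with fewer than 3300 nuclei, whose migration was not assessed.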 Raw values are not corrected between plates. Unmarked entries are inactive.

Assay: 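siRNA pools altering how lymphatic endothelial cells close a scratch wound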 (primary screen)
Cell system: human lymphatic endothelial cells
Reagent: siRNA pool against human genes, 40 nM
Duration: 48 h after transfection
Detection: 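High-content imaging of dye-stained cells in a scratch assay measures filled wound area and nuclei per well; duplicate means given as ratio to mock and robust z-score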
Scale: migration robust z-score: higher = faster migration into the scratch; migration relative to mock: higher = more scratch area covered than mock; nuclei per well: higher = more cells in the well
Active means: 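Pools averaging fewer than 3300 nuclei are never called; remaining pools count as changed when migration robust z lies outside -2 to 2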
Calls: active = migration changed; inactive = no migration change, or too few cells

gene knocked down | migration robust z-score | migration class with cell-count check | migration relative to mock | nuclei per well, duplicate mean
JUN | -2.23 (active) | migration z below -2; enough cells | 0.38 | 4072
ATAT1 | 0.46 | migration z between -2 and 2; enough cells | 1 | 6094
TAS2R13 | -1.15 | migration z between -2 and 2; enough cells | 0.58 | 6086
MIEF1 | -2.47 (active) | migration z below -2; enough cells | 0.24 | 4921
PGLYRP3 | -0.91 | migration z between -2 and 2; enough cells | 0.63 | 5492
ERAS | -0.47 | migration z between -2 and 2; enough cells | 0.76 | 6102
ANGEL2 | -0.78 | migration z between -2 and 2; enough cells | 0.69 | 6013
LINC01587 | -0.8 | migration z between -2 and 2; enough cells | 0.68 | 6248
NDUFAF4 | 0.04 | migration z between -2 and 2; enough cells | 0.9 | 5616
GAN | -1.85 | migration z between -2 and 2; enough cells | 0.41 | 5148
ARL6IP4 | 2.39 (active) | migration z above 2; enough cells | 1.5 | 6048
PKD1L1 | -0.64 | migration z between -2 and 2; enough cells | 0.72 | 6166
DUX1 | -0.48 | migration z between -2 and 2; enough cells | 0.76 | 6789
NUFIP2 | -0.31 | migration z between -2 and 2; enough cells | 0.8 | 5546
VPS16 | 1.19 | migration z between -2 and 2; enough cells | 1.2 | 5052
BSCL2 | -1.66 | migration z between -2 and 2; enough cells | 0.45 | 5652
AMY2A | -0.7 | migration z between -2 and 2; enough cells | 0.67 | 5754
IL19 | -0.49 | migration z between -2 and 2; enough cells | 0.76 | 5387
GAGE6 | -0.92 | migration z between -2 and 2; enough cells | 0.64 | 5084
CIBAR2 | -1.15 | migration z between -2 and 2; enough cells | 0.59 | 6050
DNAJC22 | 1.13 | migration z between -2 and 2; enough cells | 1.18 | 5546
ZSCAN5B | -0.2 | migration z between -2 and 2; enough cells | 0.84 | 6443
R3HCC1L | -0.37 | migration z between -2 and 2; enough cells | 0.79 | 5766
VCX2 | 0.91 | migration z between -2 and 2; enough cells | 1.12 | 6286
GBP4 | 0.22 | migration z between -2 and 2; enough cells | 0.94 | 4140
ALB | -0.52 | migration z between -2 and 2; enough cells | 0.7 | 5795
KDM3B | -1.5 | migration z between -2 and 2; enough cells | 0.5 | 5048
BMAL2 | -0.24 | migration z between -2 and 2; enough cells | 0.76 | 5213
DCTN4 | -0.6 | migration z between -2 and 2; enough cells | 0.73 | 6291
AGT | 0.05 | migration z between -2 and 2; enough cells | 0.82 | 6562
POLD4 | -3.14 (active) | migration z below -2; enough cells | 0.2 | 5418
PCSK1N | -1.46 | migration z between -2 and 2; enough cells | 0.51 | 3434
METTL13 | 0.72 | migration z between -2 and 2; enough cells | 0.94 | 4781
SULT4A1 | -1.09 | migration z between -2 and 2; enough cells | 0.6 | 5590
RBMS3 | 0.48 | migration z between -2 and 2; enough cells | 1.01 | 6790
MSL3 | -0.76 | migration z between -2 and 2; enough cells | 0.68 | 5730
NEURL1 | 0.78 | migration z between -2 and 2; enough cells | 0.96 | 6693
BRDT | -0.28 | migration z between -2 and 2; enough cells | 0.75 | 6562
RIOK3 | 0.52 | migration z between -2 and 2; enough cells | 0.9 | 6802
GSTM1 | -0.62 | migration z between -2 and 2; enough cells | 0.68 | 5881
SYPL1 | 1 | migration z between -2 and 2; enough cells | 1.14 | 5872

A portion from the list above, as a working copy:
gene knocked down | migration robust z-score | migration class with cell-count check | migration relative to mock | nuclei per well, duplicate mean
DUX1 | -0.48 | migration z between -2 and 2; enough cells | 0.76 | 6789
NUFIP2 | -0.31 | migration z between -2 and 2; enough cells | 0.8 | 5546
VPS16 | 1.19 | migration z between -2 and 2; enough cells | 1.2 | 5052
BSCL2 | -1.66 | migration z between -2 and 2; enough cells | 0.45 | 5652
AMY2A | -0.7 | migration z between -2 and 2; enough cells | 0.67 | 5754

More results follow:
gene knocked down | migration robust z-score | migration class with cell-count check | migration relative to mock | nuclei per well, duplicate mean
OR7D4 | 0.86 | migration z between -2 and 2; enough cells | 1.1 | 5608
RAB40A | -0.94 | migration z between -2 and 2; enough cells | 0.62 | 5258
MED10 | 0.2 | migration z between -2 and 2; enough cells | 0.94 | 6152
UPF1 | 0.15 | migration z between -2 and 2; enough cells | 0.84 | 4110
OR8G5 | 0.77 | migration z between -2 and 2; enough cells | 1.08 | 6467
C5orf46 | 0.14 | migration z between -2 and 2; enough cells | 0.92 | 4776
FOXD4L1 | -0.38 | migration z between -2 and 2; enough cells | 0.78 | 5201
OXTR | 1.19 | migration z between -2 and 2; enough cells | 1.04 | 5732
TG | 0.62 | migration z between -2 and 2; enough cells | 0.92 | 6400
FAAP24 | 1.75 | migration z between -2 and 2; enough cells | 1.32 | 7071
TEX12 | 0.94 | migration z between -2 and 2; enough cells | 1.13 | 6570
PHKG1 | 1.9 | migration z between -2 and 2; enough cells | 1.17 | 5448
TRNP1 | 0.58 | migration z between -2 and 2; enough cells | 1.04 | 4688
PROM1 | 0.37 | migration z between -2 and 2; enough cells | 0.98 | 5559
NFATC4 | -2.54 (active) | migration z below -2; enough cells | 0.32 | 6216
ZNF202 | -0.01 | migration z between -2 and 2; enough cells | 0.88 | 5146
ABCD3 | 0.34 | migration z between -2 and 2; enough cells | 0.87 | 6482
TLK2 | 0.36 | migration z between -2 and 2; enough cells | 0.88 | 4421
CFAP70 | 1.12 | migration z between -2 and 2; enough cells | 1.17 | 5832
GIPR | 1.29 | migration z between -2 and 2; enough cells | 1.06 | 5426
AZIN1 | 0.99 | migration z between -2 and 2; enough cells | 1 | 7276
ARHGAP1 | -0.2 | migration z between -2 and 2; enough cells | 0.84 | 6480
THOC7 | -0.01 | migration z between -2 and 2; enough cells | 0.88 | 6390
CHMP6 | 0.66 | migration z between -2 and 2; enough cells | 1.06 | 6114
PHKB | 0.03 | migration z between -2 and 2; enough cells | 0.81 | 4914
SLC2A9 | 0.36 | migration z between -2 and 2; enough cells | 0.88 | 6492
TFPT | 0.92 | migration z between -2 and 2; enough cells | 1.12 | 5892
HOXA7 | 0.94 | migration z between -2 and 2; enough cells | 0.98 | 5496
ZC3HAV1 | 0.18 | migration z between -2 and 2; enough cells | 0.93 | 5656
CYSRT1 | 3.34 (active) | migration z above 2; enough cells | 1.75 | 7574
FAM241B | 0.3 | migration z between -2 and 2; enough cells | 0.97 | 5874
CACNB2 | 0.6 | migration z between -2 and 2; enough cells | 0.92 | 6096
